Measured values taken from PMC8987051.
No constants are given. Whether binding was seen depends on the method and setting. In cells and extracts the contact can be indirect. Some results given as binding are weak or reduced against the parent protein; the word gives no strength.

By UniProt entry, the sequences of proteins in these tests, tags left out. Residues count along the entry.
UniProt P05121, residues 24-402: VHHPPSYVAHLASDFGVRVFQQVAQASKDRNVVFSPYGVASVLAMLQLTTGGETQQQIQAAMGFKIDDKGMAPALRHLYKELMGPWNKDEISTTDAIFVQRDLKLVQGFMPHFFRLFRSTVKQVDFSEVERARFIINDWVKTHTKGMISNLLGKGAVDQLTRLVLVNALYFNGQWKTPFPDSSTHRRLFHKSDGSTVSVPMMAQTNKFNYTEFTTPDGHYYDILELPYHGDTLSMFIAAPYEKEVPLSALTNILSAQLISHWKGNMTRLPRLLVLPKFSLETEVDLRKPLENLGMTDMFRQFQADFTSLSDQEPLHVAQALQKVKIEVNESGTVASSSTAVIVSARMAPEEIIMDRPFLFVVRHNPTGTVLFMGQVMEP
UniProt P45974: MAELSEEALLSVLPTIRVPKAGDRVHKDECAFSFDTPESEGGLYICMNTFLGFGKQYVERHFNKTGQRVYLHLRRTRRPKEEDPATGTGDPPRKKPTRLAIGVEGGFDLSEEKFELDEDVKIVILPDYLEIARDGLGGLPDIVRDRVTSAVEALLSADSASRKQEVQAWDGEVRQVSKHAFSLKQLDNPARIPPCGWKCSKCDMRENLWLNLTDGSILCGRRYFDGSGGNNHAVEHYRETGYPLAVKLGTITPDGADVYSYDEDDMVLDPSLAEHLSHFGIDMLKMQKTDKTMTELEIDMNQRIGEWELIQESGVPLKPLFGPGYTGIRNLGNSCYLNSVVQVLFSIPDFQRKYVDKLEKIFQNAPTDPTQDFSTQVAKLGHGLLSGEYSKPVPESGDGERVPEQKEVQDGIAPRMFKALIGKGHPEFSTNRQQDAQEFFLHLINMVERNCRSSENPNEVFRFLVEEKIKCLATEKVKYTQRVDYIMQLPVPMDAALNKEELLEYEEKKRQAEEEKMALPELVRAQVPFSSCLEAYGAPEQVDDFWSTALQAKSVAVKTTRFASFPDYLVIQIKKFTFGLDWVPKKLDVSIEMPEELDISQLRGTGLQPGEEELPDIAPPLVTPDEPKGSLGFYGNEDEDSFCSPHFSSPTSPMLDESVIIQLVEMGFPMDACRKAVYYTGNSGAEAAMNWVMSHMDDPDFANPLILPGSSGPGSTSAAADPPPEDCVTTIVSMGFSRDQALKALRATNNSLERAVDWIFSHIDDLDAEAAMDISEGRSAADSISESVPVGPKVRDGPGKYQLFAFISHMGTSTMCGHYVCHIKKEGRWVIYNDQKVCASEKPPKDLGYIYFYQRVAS

Target: Plasminogen Activator Inhibitor-1 (PAI1) (human (endogenous in LUAD cell lines)) (UniProt P05121)
Experiment: co-IP; total protein from cells incubated with anti-PAI1 antibody or control anti-IgG overnight at 4 °C, then Protein A/G overnight at 4 °C; washed with PBS; SDS-PAGE; cell line not stated

binding: binds
Substance: ubiquitin specific peptidase 5 (USP5) (from UniProt P45974 1-858) (enzyme)
